From publication PMC3725163
These are yes or no findings as the source states them, for the method shown. Binding seen in cells or lysates may run through a third protein. Where a sequence is shown, tags or fusion partners need not be part of it.

Chains of the proteins cited; added tags and fusions are not shown. Residues count along the entry.
UniProt P29837, residues 2512-3414: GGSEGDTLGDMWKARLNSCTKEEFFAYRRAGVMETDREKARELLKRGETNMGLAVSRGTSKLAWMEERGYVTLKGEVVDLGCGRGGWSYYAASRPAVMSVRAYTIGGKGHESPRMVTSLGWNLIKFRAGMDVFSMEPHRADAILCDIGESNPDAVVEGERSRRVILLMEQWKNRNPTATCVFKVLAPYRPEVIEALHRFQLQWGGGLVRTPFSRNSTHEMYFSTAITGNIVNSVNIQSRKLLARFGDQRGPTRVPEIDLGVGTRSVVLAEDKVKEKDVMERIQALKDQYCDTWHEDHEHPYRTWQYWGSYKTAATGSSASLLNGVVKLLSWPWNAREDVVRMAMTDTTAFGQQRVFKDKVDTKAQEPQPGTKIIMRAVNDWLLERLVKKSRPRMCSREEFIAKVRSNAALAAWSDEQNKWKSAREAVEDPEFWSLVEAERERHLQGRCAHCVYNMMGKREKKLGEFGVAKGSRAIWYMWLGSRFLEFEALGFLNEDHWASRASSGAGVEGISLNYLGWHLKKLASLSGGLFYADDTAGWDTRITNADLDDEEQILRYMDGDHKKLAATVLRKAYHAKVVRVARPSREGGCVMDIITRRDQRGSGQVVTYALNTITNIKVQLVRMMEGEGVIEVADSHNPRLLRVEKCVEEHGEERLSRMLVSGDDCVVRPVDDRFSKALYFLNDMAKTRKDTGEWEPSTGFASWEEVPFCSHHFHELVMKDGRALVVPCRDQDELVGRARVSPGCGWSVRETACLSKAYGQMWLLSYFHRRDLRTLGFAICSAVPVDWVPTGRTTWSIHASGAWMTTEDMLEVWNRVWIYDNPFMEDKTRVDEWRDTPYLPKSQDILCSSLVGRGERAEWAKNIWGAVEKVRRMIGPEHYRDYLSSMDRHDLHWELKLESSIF

Target: T1, human PKGIβ-Flag (cGMP-dependent protein kinase G I beta), expressed in HEK293T cells (human) (UniProt Q13976)
T1 sequence: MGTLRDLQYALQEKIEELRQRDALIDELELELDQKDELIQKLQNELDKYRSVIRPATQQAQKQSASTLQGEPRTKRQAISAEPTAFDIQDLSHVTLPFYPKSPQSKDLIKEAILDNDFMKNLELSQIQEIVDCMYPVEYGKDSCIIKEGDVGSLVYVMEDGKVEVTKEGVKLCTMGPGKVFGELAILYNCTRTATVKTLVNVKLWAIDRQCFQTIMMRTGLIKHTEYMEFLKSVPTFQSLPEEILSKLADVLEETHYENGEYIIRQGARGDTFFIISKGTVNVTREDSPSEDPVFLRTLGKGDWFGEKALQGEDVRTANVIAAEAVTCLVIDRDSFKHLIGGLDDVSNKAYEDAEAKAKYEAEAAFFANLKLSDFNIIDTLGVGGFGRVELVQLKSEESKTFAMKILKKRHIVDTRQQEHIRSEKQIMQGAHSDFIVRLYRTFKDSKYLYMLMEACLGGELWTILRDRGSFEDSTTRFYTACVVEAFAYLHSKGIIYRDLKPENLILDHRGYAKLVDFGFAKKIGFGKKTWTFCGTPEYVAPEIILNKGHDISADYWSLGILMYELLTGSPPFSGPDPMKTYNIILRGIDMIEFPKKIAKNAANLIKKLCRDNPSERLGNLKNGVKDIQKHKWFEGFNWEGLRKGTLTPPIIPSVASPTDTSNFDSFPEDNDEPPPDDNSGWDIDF
Test: co-IP

“Langat virus NS5, full-length (aa 1-904), HA-tagged, expressed in HEK293T cells (from UniProt P29837)” was tested, and the binding was “no binding”.
